# From PubChem BioAssay AID1471 (National Center for Advancing Translational Sciences (NCATS), 2008)
# Several values for one entry are separate records, joined by “and”; a condition that tells them apart may be missing. Equal values may be shown once. The whole screen tested about 230,000 compounds, of which about 310 (0.13%) were called active. The shares of active, inactive and inconclusive entries below differ from those in the screen. The call rests on the fitted dose curve; in most records, active means well fitted activation curve with a large enough effect; inconclusive means small, poorly fitted or top-dose-only effect; inactive means no such curve, though single readings can be large or run the other way. Where the call is inconclusive, the potency comes from a doubtful curve fit.
# Assay: qHTS Multiplex Assay to Identify Dual Action Probes in a Cell Model of Huntington: Cytoprotection (ATP); further: nearly all actives have a fitted effect of over 45% in size;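 on cytoprotection (ATP increase): toxic huntingtin expression switched on by the ecdysone agonist tebufenozide; % of control where 0% means no effect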
# Conditions: PC12 HTT-Q103 induced, ATP luminescence, 40 h; cytoprotection (ATP increase): at 56.4 µM (top of the series) unless noted
# Outline: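 Readout: ATPlite luminescence (ATP level). Model: stable PC12, inducible Htt exon1 Q103-GFP. Inducer: tebufenozide, 100 nM final. Compounds: dose series. No G418 in medium.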
# Potency means the concentration at half of the fitted maximal effect.
SMILES,Potency,cytoprotection (ATP increase)
CSC(=NC#N)N1CCN(c2c(C)cccc2C)CC1,"inconclusive: 35.5 µM [activator, single point]",
CC(C)CC(NC(=O)COc1ccccc1)C(=O)O (stereo unspecified),"inconclusive: 5.62 µM [activator, single point]",
O=S(=O)(CCSc1nc2ccccc2o1)c1nc2ccccc2s1,"inconclusive: 31.6 µM [activator, single point]",
Brc1ccc(-c2csc3ncnc(-n4nnc5ccccc54)c23)cc1,"inconclusive: 0.794 µM [activator, single point]",
C=C(C)CN(CC#N)CC(=C)C,,inactive: -8.57% [at 10 µM]
C=C1C(=O)O[C@@H]2C[C@@H](C)[C@@H]3C=CC(=O)[C@@]3(C)[C@@H](OC(C)=O)[C@H]12,"inconclusive: 1.12 µM [activator, single point]",
c1cncc(-c2cncnc2NCc2cccs2)c1,"inconclusive: 0.631 µM [activator, single point]",
N[C@@H](C(=O)O)c1ccc(C(=O)O)cc1,"inconclusive: 12.6 µM [activator, single point]",
CC(CC(=O)NCc1cccnc1)c1ccccc1 (stereo unspecified),"inconclusive: 5.01 µM [activator, single point]",
CCOC(=O)CCN1C(=O)[C@H]2[C@H]3[C@H](O)[C@H](O)C/C(=N/OC[C@@H](O)COCc4ccco4)[C@H]3CC[C@@H]2C1=O,"inconclusive: 0.141 µM [activator, partial curve]",
COC(=O)c1cc(OC)c(=O)c2c(OC)c(OC)ccc2c1,"inconclusive: 0.126 µM [activator, partial curve]",
CCCCC[C@H](O)CC[C@H]1[C@H](O)CC(=O)[C@@H]1CCCCCCC(=O)O,"inconclusive: 0.562 µM [activator, full curve, poor fit]",
Cn1nnnc1NCc1ccc(Cl)cc1,"inconclusive: 5.62 µM [activator, single point]",
O=C(Nc1ccc(Cl)cc1)C1CC(=O)n2c(nc3ccccc32)N1 (stereo unspecified),"inconclusive: 0.0891 µM [activator, full curve, poor fit]",
COC(=O)N1C2=C(c3ccccc3[C@@H]1CC(=O)Nc1ccc3ccc4cccc5ccc1c3c45)[C@@H]1C(=O)N(c3ccccc3)C(=O)[C@@H]1[C@H](C)C2,,inactive: 6.28% [at 10 µM]
CC(C)CO/N=C1/C[C@@H](O)[C@@H](O)[C@@H]2[C@@H]3C(=O)N(Cc4ccccc4)C(=O)[C@H]3CC[C@@H]12,active: 2.82 µM,
CCC(=O)Nn1cnc2c(c1=O)C1(CCCCC1)Cc1ccccc1-2,inactive,
CC(C)Oc1ccc(/C=N/NC(N)=S)cc1,"inconclusive: 0.631 µM [activator, single point]",
O=C1C=C[C@@H](O)[C@H]2[C@@H]3C(=O)N(C4CCCCC4)C(=O)[C@@H]3CC[C@H]12,"inconclusive: 0.158 µM [activator, full curve, poor fit]",
Nc1ccc(S(=O)(=O)NCc2ccccc2)cc1,"inconclusive: 11.2 µM [activator, single point]",
CCCCC/C=C/C=C1/C(=O)C=C[C@@H]1C/C=C\CCCC(=O)O,"inconclusive: 31.6 µM [activator, single point] and inconclusive: 11.2 µM [activator, partial curve, poor fit]",

# Exported as tab-separated lines: entries from further up
SMILES	Potency	cytoprotection (ATP increase)
CCC(=O)Nn1cnc2c(c1=O)C1(CCCCC1)Cc1ccccc1-2	inactive	
CC(C)Oc1ccc(/C=N/NC(N)=S)cc1	inconclusive: 0.631 µM [activator, single point]	
O=C1C=C[C@@H](O)[C@H]2[C@@H]3C(=O)N(C4CCCCC4)C(=O)[C@@H]3CC[C@H]12	inconclusive: 0.158 µM [activator, full curve, poor fit]	

# (further entries)

SMILES,Potency,cytoprotection (ATP increase)
COc1ccc(NC(=O)N2CCCC3(CCNCC3)C2)cc1,active: 1.58 µM,
CC1=Nc2cc(Cl)ccc2Oc2ccccc21,inactive,
COC(=O)C1C(c2ccc(OC)c(OC)c2)NC(c2ccc(OC)c(OC)c2)C(C(=O)OC)S1(=O)=O (stereo unspecified),,inactive: 0.13% [at 1.9 µM]
COC(=O)[C@H](C)NC(=O)C/C=C\[C@@H](C)CO,"inconclusive: 0.891 µM [activator, full curve]",
CC(C)(C)C1CCc2onc(C(=O)Nc3ccc(F)cc3F)c2C1 (stereo unspecified),"inconclusive: 0.0891 µM [activator, partial curve, poor fit]",
O=C(CSc1nc2ccccc2c(=O)n1-c1ccccc1)N1CCCc2ccccc21,"inconclusive: 0.891 µM [activator, single point]",
O=C(NC(=S)Nc1ccc2oc(=O)ccc2c1)c1ccc(-c2cccc(Cl)c2Cl)o1,"inconclusive: 0.398 µM [activator, partial curve]",
Cc1cc(C)c(S(=O)(=O)c2ccc(Cl)cc2C)c(Cl)n1,"inconclusive: 0.0891 µM [activator, partial curve, poor fit]",
O=C1[C@H]2[C@H]3[C@H](O)[C@H](O)C/C(=N/OC[C@@H](O)COCc4ccco4)[C@@H]3CC[C@@H]2C(=O)N1C1CCCCC1,"inconclusive: 5.62 µM [activator, single point]",
C/C=C/C(=O)OCC(=O)Nc1ccc(SC(F)F)cc1,"inconclusive: 5.62 µM [activator, single point]",
CCOc1ccc(NC(=S)N/N=C(\C)Cc2ccc(OC)cc2)cc1,"inconclusive: 5.62 µM [activator, single point]",
CCc1ccc2[nH]c(=O)c(C(c3nnnn3CCOC)N3CCN(c4ccccc4)CC3)cc2c1 (stereo unspecified),,inactive: 2.12% [at 10 µM]
O=C1C=CC2=C3c4cc(O)c(O)cc4C[C@]3(O)COC2=C1,"inconclusive: 25.1 µM [activator, single point]",
Cl/C(=C\n1cncn1)c1ccc(Cl)cc1Cl,"inconclusive: 39.8 µM [activator, single point]",
CCOC(=O)CNC(=O)O[C@@H]1Cc2cc(OC)ccc2O[C@H]1c1cccc(OC)c1,"inconclusive: 31.6 µM [activator, single point]",
Cc1ccc(Nc2nc(N)c([N+](=O)[O-])c(NCCO)n2)cc1,"inconclusive: 5.62 µM [activator, single point]",
O=C(COc1ccccc1)NCC(=O)N/N=C/c1ccc(O)cc1O,"inconclusive: 1.26 µM [activator, single point]",
O=S(=O)(NCc1c(Cl)cccc1Oc1ccccc1)c1ccc(F)cc1,"inconclusive: 1 µM [activator, full curve, poor fit]",
COc1ccc(N=C2SC(CC(=O)Nc3ccccc3)C(=O)N2Cc2ccccn2)cc1 (stereo unspecified),"inconclusive: 1.26 µM [activator, single point]",
Cc1ccc(OCc2nnc(SCC(=O)N3CCOCC3)n2C)cc1,active: 12.6 µM,
N#C/C(=C\NC(=S)c1ccncc1)c1nc2ccccc2s1,,inactive: -7.2% [at 10 µM]

SMILES,Potency,cytoprotection (ATP increase)
Cn1cc(C(=O)c2cccc(Cl)c2Cl)cc1C(=O)O,"inconclusive: 25.1 µM [activator, single point]",
Cc1cccc(OC(=O)c2ccc3nccnc3c2)c1,inactive,
Cc1ccc(-n2nnc3c(=O)n(CC(=O)NCC4CCCO4)cnc32)cc1 (stereo unspecified),"inconclusive: 5.62 µM [activator, single point]",
CCCC(=O)NCCc1nc2ccccc2n1CC(=O)c1ccccc1,"inconclusive: 1.26 µM [activator, single point]",
CCC(=O)Nc1ccc(Nc2nc(Cl)nc(Nc3ccc(NC(=O)CC)cc3)n2)cc1,"inconclusive: 2.51 µM [activator, partial curve, poor fit]",
COC(=O)NC(c1cccs1)C(C(C)=O)C(=O)OC (stereo unspecified),"inconclusive: 1.26 µM [activator, single point]",
CO[C@@H]1COC(=O)C/C=C\[C@H](C)[C@H](OC)COC(=O)[C@H](C)NC(=O)C/C=C\[C@H]1C,"inconclusive: 0.0794 µM [activator, single point]",
COc1ccc2c(CC(=O)N3CCN(S(=O)(=O)c4cccs4)CC3)coc2c1,,inactive: 28.5% [at 10 µM]
COc1ccc2[nH]cc(CCNc3ncncc3-c3ccc(C(=O)N(C)C)cc3)c2c1,"inconclusive: 4.47 µM [activator, full curve, poor fit]",
CCCCNC(=S)N/N=C/c1sccc1C,"inconclusive: 0.0089 µM [activator, full curve, poor fit]",
c1ccc(C2=Nn3c(nnc3-c3ccncc3)SC2)cc1,active: 25.1 µM,
CC(C)N(C(=O)COC(=O)c1ccc(Cl)nc1)C(C)C,"inconclusive: 5.62 µM [activator, single point]",
CC(=O)OC[C@@H]1O[C@@H](O/N=C2/C[C@@H](O)[C@@H](O)[C@@H]3[C@@H]4C(=O)N([C@@H](C)c5ccccc5)C(=O)[C@H]4CC[C@H]23)[C@H](OC(C)=O)[C@H](OC(C)=O)[C@@H]1OC(C)=O,"inconclusive: 0.794 µM [activator, single point]",
CN(C)c1nc(N/N=C/c2c[nH]c3ccccc23)nc(N2CCOCC2)n1,"inconclusive: 14.1 µM [activator, single point]",
COC(=O)[C@@]1(Cc2ccc(F)cc2)[C@H]2c3cc(C(=O)N4CCCC4)n(CC4CC4)c3C[C@H]2CN1C(=O)c1ccccc1,"inconclusive: 0.158 µM [activator, full curve, poor fit]",
CN1CCN(NC(=S)Nc2ccccc2)CC1,"inconclusive: 0.158 µM [activator, full curve, poor fit]",
N[C@H](C(=O)O)[C@@H]1[C@@H](C(=O)O)C1(F)F,"inconclusive: 0.316 µM [activator, partial curve]",
Cc1ccccc1NC(=O)Cn1c(=O)n(CC2CCCO2)c(=O)c2ccccc21 (stereo unspecified),"inconclusive: 14.1 µM [activator, partial curve, poor fit]",
COc1cc(COc2cc(N)c(Cl)cc2C(=O)CCC2CCN(CCNS(C)(=O)=O)CC2)cc(OC)c1,"inconclusive: 0.1 µM [activator, full curve, poor fit]",

# Given as tab-separated lines: 2 of the compounds above.
SMILES	Potency	cytoprotection (ATP increase)
CN(C)c1nc(N/N=C/c2c[nH]c3ccccc23)nc(N2CCOCC2)n1	inconclusive: 14.1 µM [activator, single point]	
COC(=O)[C@@]1(Cc2ccc(F)cc2)[C@H]2c3cc(C(=O)N4CCCC4)n(CC4CC4)c3C[C@H]2CN1C(=O)c1ccccc1	inconclusive: 0.158 µM [activator, full curve, poor fit]	
